Source: PubChem BioAssay AID686938 (Drosophila RNAi Screening Center, 2013)
Screen: 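Knock-downs reducing store-operated calcium influx in Drosophila cells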 (primary screen). System: Drosophila S2R+ cells. Knock-down reagent: long dsRNA against Drosophila genes, about 0.25 µg dsRNA per well, roughly 10,000 cells. Time to read-out: 5 days of knock-down before the calcium assay. Treatment: thapsigargin (SERCA pump blocker) to empty calcium stores; entry signal taken 4 min after adding it. Measured: 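Duplicate raw fluo-4 intensities per well from a plate reader, at rest and four minutes after thapsigargin emptied calcium stores; entry-to-rest ratio filled for only some wells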. Reading the numbers: calcium entry signal: higher = stronger calcium signal after store depletion; entry to resting ratio: higher = more calcium entry relative to resting level; resting calcium signal: higher = higher resting calcium signal. Units: calcium entry signal in fluorescence units; resting calcium signal in fluorescence units. Active means: 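Hit if the duplicate-averaged plate z-score for entry over resting signal is under −3; wells with weak total dye signal (Fmax z < −2) or more than 5 off-targets removed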. Calls: active = strongly reduced calcium entry; inactive = no strong reduction.
In all, the deposit lists about 23,000 reagents; shown is a random part of those with a known target gene and a result. Over the whole deposit, 75 (0.33%) got an active call. 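Raw plate signals without normalisation; calls rest on plate z-scores that were not deposited; ratio present for only 364 wells.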 Not stated in the record: the dose of the treatment.

For Pbgs [DRSC09718], how do the results read?
calcium entry signal, replicate 1: 2.72e7; calcium entry signal, replicate 2: 5.04e7; resting calcium signal, replicate 1: 1.46e7; resting calcium signal, replicate 2: 2.28e7; call: inactive

For CG10026 [DRSC02010], what was measured?
calcium entry signal, replicate 1: 6.34e7; calcium entry signal, replicate 2: 4.45e7; resting calcium signal, replicate 1: 2.96e7; resting calcium signal, replicate 2: 1.73e7; call: inactive

What is on record for ari-1 [DRSC20308]?
calcium entry signal, replicate 1: 3.60e7; calcium entry signal, replicate 2: 3.25e7; resting calcium signal, replicate 1: 1.82e7; resting calcium signal, replicate 2: 1.58e7; call: inactive

What did the screen give for ari-1 [DRSC21603]?
calcium entry signal, replicate 1: 2.16e7; calcium entry signal, replicate 2: 3.26e7; resting calcium signal, replicate 1: 1.18e7; resting calcium signal, replicate 2: 1.59e7; call: inactive

Which result is listed for CR11235 [DRSC20480]?
calcium entry signal, replicate 1: 4.57e7; calcium entry signal, replicate 2: 4.21e7; resting calcium signal, replicate 1: 2.17e7; resting calcium signal, replicate 2: 1.91e7; call: inactive

Which result is listed for Reg-2 [DRSC08690]?
calcium entry signal, replicate 1: 4.49e7; calcium entry signal, replicate 2: 4.04e7; resting calcium signal, replicate 1: 2.18e7; resting calcium signal, replicate 2: 1.93e7; call: inactive

Which result is listed for Naa60 [DRSC10301]?
calcium entry signal, replicate 1: 3.07e7; calcium entry signal, replicate 2: 5.10e7; resting calcium signal, replicate 1: 1.51e7; resting calcium signal, replicate 2: 2.22e7; call: inactive

For CG17744 [DRSC10286], what was measured?
calcium entry signal, replicate 1: 3.93e7; calcium entry signal, replicate 2: 4.14e7; resting calcium signal, replicate 1: 1.82e7; resting calcium signal, replicate 2: 1.91e7; call: inactive

What did the screen give for Alg-2 [DRSC07799]?
calcium entry signal, replicate 1: 3.53e7; calcium entry signal, replicate 2: 4.86e7; resting calcium signal, replicate 1: 1.81e7; resting calcium signal, replicate 2: 1.89e7; call: inactive

Which result is listed for PolD3 [DRSC01961]?
calcium entry signal, replicate 1: 4.56e7; resting calcium signal, replicate 1: 2.33e7; call: inactive

For CG17298 [DRSC15221], what was measured?
calcium entry signal, replicate 1: 3.22e7; calcium entry signal, replicate 2: 3.29e7; resting calcium signal, replicate 1: 3.20e7; resting calcium signal, replicate 2: 1.49e7; call: inactive

How did the screen score CG6565 [DRSC02970]?
calcium entry signal, replicate 1: 4.35e7; resting calcium signal, replicate 1: 2.24e7; call: inactive

What is on record for CG16854 [DRSC02536]?
calcium entry signal, replicate 1: 3.46e7; calcium entry signal, replicate 2: 5.30e7; resting calcium signal, replicate 1: 1.71e7; resting calcium signal, replicate 2: 2.14e7; call: inactive

What is on record for CG30495 [DRSC06703]?
calcium entry signal, replicate 1: 4.58e7; calcium entry signal, replicate 2: 4.09e7; resting calcium signal, replicate 1: 2.13e7; resting calcium signal, replicate 2: 1.72e7; call: inactive

What did the screen give for CG13046 [DRSC09927]?
calcium entry signal, replicate 1: 3.63e7; calcium entry signal, replicate 2: 4.81e7; resting calcium signal, replicate 1: 1.78e7; resting calcium signal, replicate 2: 1.95e7; call: inactive

With LIMK1 [DRSC19811], how do the results read?
calcium entry signal, replicate 1: 3.50e7; calcium entry signal, replicate 2: 4.04e7; resting calcium signal, replicate 1: 1.74e7; resting calcium signal, replicate 2: 1.85e7; call: inactive

Which result is listed for Lint-O [DRSC18468]?
calcium entry signal, replicate 1: 3.76e7; calcium entry signal, replicate 2: 5.49e7; entry to resting ratio: 2.1; resting calcium signal, replicate 1: 1.79e7; resting calcium signal, replicate 2: 1.90e7; call: inactive

With CG33270 [DRSC10584], what does the deposit list?
calcium entry signal, replicate 1: 3.94e7; calcium entry signal, replicate 2: 4.75e7; resting calcium signal, replicate 1: 2.24e7; resting calcium signal, replicate 2: 2.53e7; call: inactive

What is on record for Rbbp5 [DRSC11778]?
calcium entry signal, replicate 1: 2.13e7; calcium entry signal, replicate 2: 2.90e7; resting calcium signal, replicate 1: 1.02e7; resting calcium signal, replicate 2: 1.33e7; call: inactive

Which result is listed for hdm [DRSC18013]?
calcium entry signal, replicate 1: 2.31e7; calcium entry signal, replicate 2: 3.48e7; resting calcium signal, replicate 1: 1.20e7; resting calcium signal, replicate 2: 1.62e7; call: inactive

What is on record for Tsp42Ef [DRSC06191]?
calcium entry signal, replicate 1: 4.28e7; calcium entry signal, replicate 2: 3.97e7; resting calcium signal, replicate 1: 1.85e7; resting calcium signal, replicate 2: 1.70e7; call: inactive
